This assay has as its target GABARAP (mouse (endogenous in BMDMs)) (UniProt Q9DCD6). The assay is described as follows: co-IP.

Chains of the proteins cited; added tags and fusions are not shown.
UniProt Q9DCD6: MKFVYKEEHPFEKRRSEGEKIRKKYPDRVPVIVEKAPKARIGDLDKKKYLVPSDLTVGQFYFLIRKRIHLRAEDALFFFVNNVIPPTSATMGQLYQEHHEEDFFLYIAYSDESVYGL
UniProt Q6VNB8: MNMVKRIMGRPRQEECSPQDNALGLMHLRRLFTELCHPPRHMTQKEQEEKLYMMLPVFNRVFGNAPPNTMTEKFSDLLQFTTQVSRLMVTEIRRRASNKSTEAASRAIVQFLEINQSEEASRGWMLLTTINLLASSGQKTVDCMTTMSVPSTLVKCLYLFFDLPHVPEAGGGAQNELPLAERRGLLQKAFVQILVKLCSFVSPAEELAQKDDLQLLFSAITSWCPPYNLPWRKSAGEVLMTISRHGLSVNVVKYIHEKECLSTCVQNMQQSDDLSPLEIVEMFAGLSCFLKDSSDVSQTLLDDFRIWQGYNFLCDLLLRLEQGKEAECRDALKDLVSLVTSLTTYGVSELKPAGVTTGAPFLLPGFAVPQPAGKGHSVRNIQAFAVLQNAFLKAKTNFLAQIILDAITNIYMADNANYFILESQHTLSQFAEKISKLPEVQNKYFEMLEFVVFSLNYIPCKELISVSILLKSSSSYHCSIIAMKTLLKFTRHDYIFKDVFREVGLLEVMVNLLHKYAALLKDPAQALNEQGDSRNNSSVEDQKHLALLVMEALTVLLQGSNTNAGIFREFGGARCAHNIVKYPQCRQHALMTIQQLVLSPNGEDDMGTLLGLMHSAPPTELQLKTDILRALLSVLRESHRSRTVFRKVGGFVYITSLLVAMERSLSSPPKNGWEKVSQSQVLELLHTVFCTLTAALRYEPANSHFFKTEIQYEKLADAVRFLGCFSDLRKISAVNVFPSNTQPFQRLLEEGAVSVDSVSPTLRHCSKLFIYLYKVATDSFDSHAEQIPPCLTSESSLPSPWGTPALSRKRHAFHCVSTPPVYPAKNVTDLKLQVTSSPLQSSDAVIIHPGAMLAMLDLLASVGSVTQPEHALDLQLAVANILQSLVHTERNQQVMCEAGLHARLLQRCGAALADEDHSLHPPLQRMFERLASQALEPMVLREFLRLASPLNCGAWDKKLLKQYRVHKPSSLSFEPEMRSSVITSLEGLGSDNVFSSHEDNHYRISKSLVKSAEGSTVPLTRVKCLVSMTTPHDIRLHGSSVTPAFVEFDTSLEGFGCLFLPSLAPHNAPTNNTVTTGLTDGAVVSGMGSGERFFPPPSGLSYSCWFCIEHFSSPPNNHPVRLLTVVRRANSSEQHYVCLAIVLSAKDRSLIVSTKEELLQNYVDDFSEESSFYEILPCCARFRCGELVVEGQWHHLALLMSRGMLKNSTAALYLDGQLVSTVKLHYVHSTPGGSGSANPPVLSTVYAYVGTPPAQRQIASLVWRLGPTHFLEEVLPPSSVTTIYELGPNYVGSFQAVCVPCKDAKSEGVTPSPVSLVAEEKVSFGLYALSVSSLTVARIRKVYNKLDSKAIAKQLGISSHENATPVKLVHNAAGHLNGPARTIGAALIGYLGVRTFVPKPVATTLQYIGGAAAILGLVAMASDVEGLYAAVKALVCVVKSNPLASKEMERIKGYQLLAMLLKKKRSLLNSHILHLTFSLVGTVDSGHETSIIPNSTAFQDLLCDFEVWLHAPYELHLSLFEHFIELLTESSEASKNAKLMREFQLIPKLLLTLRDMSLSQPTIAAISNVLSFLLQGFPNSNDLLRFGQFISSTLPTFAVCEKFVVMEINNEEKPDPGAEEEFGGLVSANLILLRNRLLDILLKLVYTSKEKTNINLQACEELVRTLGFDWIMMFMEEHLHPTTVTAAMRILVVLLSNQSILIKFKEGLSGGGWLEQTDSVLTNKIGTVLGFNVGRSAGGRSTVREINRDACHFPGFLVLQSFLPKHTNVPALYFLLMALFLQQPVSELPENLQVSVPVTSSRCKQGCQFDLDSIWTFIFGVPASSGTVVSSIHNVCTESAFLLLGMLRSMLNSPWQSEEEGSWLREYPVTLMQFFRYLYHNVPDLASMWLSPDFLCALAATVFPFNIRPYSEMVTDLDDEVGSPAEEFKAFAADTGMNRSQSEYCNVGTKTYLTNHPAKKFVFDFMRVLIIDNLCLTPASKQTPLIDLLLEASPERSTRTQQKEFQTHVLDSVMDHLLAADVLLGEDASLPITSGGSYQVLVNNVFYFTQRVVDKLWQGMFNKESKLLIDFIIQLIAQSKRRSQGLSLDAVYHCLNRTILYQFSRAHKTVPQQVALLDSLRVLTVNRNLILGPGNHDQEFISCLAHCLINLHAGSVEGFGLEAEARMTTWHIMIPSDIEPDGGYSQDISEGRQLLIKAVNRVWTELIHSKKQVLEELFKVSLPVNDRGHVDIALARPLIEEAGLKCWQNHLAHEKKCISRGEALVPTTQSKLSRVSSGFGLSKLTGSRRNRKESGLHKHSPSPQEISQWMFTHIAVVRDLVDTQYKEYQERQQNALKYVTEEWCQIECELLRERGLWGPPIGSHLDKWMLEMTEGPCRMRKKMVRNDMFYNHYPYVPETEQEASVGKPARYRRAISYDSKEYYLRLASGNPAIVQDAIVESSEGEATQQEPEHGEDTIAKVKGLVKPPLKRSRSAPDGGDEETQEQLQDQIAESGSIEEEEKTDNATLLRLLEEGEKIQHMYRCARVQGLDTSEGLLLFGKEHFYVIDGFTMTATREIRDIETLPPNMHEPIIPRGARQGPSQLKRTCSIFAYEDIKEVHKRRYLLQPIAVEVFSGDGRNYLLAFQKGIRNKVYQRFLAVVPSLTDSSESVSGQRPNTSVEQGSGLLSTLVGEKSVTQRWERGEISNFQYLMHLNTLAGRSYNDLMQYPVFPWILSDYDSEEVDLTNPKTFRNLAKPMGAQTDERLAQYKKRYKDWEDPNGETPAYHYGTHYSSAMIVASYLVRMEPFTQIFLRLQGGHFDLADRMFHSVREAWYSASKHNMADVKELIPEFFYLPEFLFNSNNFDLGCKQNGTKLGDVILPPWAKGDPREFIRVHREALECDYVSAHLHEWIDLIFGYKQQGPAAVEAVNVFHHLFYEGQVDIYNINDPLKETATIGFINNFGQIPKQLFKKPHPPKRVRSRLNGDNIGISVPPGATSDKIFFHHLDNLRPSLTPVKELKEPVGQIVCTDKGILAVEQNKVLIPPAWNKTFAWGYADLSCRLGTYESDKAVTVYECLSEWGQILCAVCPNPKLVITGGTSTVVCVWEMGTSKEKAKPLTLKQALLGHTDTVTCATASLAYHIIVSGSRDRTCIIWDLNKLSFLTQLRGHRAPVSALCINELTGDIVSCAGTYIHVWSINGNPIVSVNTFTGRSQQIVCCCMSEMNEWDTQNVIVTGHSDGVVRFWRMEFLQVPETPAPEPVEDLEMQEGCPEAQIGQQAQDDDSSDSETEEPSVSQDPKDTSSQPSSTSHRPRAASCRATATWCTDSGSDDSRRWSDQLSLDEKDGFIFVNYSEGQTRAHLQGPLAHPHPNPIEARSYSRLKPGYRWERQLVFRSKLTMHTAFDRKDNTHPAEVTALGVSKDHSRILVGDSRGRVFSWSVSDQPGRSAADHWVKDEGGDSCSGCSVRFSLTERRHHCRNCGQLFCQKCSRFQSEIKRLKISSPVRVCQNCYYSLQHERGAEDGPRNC

No constants are given. Whether binding was seen depends on the method and setting. In cells and extracts the contact can be indirect. Some binding calls cover weakened binding; strength is not graded here.

Take “WDFY3 (WD repeat and FYVE domain containing 3) (from UniProt Q6VNB8 1-3508)”: the binding result is “binds”.

(Values after paper doi:10.1101/2022.01.21.477299.)
